doi:10.1101/2024.11.20.624400
Results are given in words; binding and its absence hold for the method and conditions named. For some assays here: A result given as binding can be weak or reduced; the word gives no strength. For some assays here: Tags and fused reporters may be left off the sequences shown. For some assays here: In cells and extracts the contact can be indirect.

Experiments:
[1] = target: CathB6^87-134 region (yeast two-hybrid fragment) (Myzus persicae); assay: two-hybrid
[2] = target: M. persicae CathB3 catalytic domain (Lys61-Asn340) in pDEST-GBKT7 (BD) (Myzus persicae); assay: two-hybrid
[3] = target: M. persicae CathB6 catalytic domain (Arg61-Asn338) in pDEST-GBKT7 (BD) (Myzus persicae); assay: two-hybrid
[4] = target: M. persicae CathB6^C114D catalytic domain mutant in pDEST-GBKT7 (BD) (Myzus persicae); assay: two-hybrid
[5] = target: M. persicae CathB9 catalytic domain (Glu61-Thr338) in pDEST-GBKT7 (BD) (Myzus persicae); assay: two-hybrid
[6] = target: CathB6-GFP (CathB6 catalytic domain Arg61-Asn338 in pB7FWG2.0) (Myzus persicae); assay: co-IP
[7] = target: CathB6^C114D-GFP (catalytic cysteine mutant of the CathB6 catalytic domain in pB7FWG2.0) (Myzus persicae); assay: co-IP
[8] = target: CathB6-GFP (CathB6 catalytic domain Arg61-Asn338 in pB7FWG2.0) (Myzus persicae); assay: FRET or BRET

B1: A. thaliana EDS1, full length, in pDEST-GADT7 (AD) (protein, UniProt Q9SU72 1-623)
chain: MAFEALTGINGDLITRSWSASKQAYLTERYHKEEAGAVVIFAFQPSFSEKDFFDPDNKSSFGEIKLNRVQFPCMRKIGKGDVATVNEAFLKNLEAIIDPRTSFQASVEMAVRSRKQIVFTGHSSGGATAILATVWYLEKYFIRNPNVYLEPRCVTFGAPLVGDSIFSHALGREKWSRFFVNFVSRFDIVPRIMLARKASVEETLPHVLAQLDPRKSSVQESEQRITEFYTRVMRDTSTVANQAVCELTGSAEAFLETLSSFLELSPYRPAGTFVFSTEKRLVAVNNSDAILQMLFYTSQASDEQEWSLIPFRSIRDHHSYEELVQSMGKKLFNHLDGENSIESTLNDLGVSTRGRQYVQAALEEEKKRVENQKKIIQVIEQERFLKKLAWIEDEYKPKCQAHKNGYYDSFKVSNEENDFKANVKRAELAGVFDEVLGLMKKCQLPDEFEGDIDWIKLATRYRRLVEPLDIANYHRHLKNEDTGPYMKRGRPTRYIYAQRGYEHYILKPNGMIAEDVFWNKVNGLNLGLQLEEIQETLKNSGSECGSCFWAEVEELKGKPYEEVEVRVKTLEGMLGEWITDGEVDDKEIFLEGSTFRKWWITLPKNHKSHSPLRDYMMDEITDT
B1 was tested, and the binding [1] was “binds”, the binding [2] was “binds” and the binding [3] was “binds”. The binding [4] was “binds” and the binding [5] was “no binding”.

B2: HA-EDS1 (full-length A. thaliana EDS1 with 3xHA, pB7WG2.0) (protein, UniProt Q9SU72 1-623)
chain: MAFEALTGINGDLITRSWSASKQAYLTERYHKEEAGAVVIFAFQPSFSEKDFFDPDNKSSFGEIKLNRVQFPCMRKIGKGDVATVNEAFLKNLEAIIDPRTSFQASVEMAVRSRKQIVFTGHSSGGATAILATVWYLEKYFIRNPNVYLEPRCVTFGAPLVGDSIFSHALGREKWSRFFVNFVSRFDIVPRIMLARKASVEETLPHVLAQLDPRKSSVQESEQRITEFYTRVMRDTSTVANQAVCELTGSAEAFLETLSSFLELSPYRPAGTFVFSTEKRLVAVNNSDAILQMLFYTSQASDEQEWSLIPFRSIRDHHSYEELVQSMGKKLFNHLDGENSIESTLNDLGVSTRGRQYVQAALEEEKKRVENQKKIIQVIEQERFLKKLAWIEDEYKPKCQAHKNGYYDSFKVSNEENDFKANVKRAELAGVFDEVLGLMKKCQLPDEFEGDIDWIKLATRYRRLVEPLDIANYHRHLKNEDTGPYMKRGRPTRYIYAQRGYEHYILKPNGMIAEDVFWNKVNGLNLGLQLEEIQETLKNSGSECGSCFWAEVEELKGKPYEEVEVRVKTLEGMLGEWITDGEVDDKEIFLEGSTFRKWWITLPKNHKSHSPLRDYMMDEITDT
B2 was tested, and the binding [6] was “binds” and the binding [7] was “binds”.

B3: EDS1-mCherry (protein, UniProt Q9SU72 1-623)
chain: MAFEALTGINGDLITRSWSASKQAYLTERYHKEEAGAVVIFAFQPSFSEKDFFDPDNKSSFGEIKLNRVQFPCMRKIGKGDVATVNEAFLKNLEAIIDPRTSFQASVEMAVRSRKQIVFTGHSSGGATAILATVWYLEKYFIRNPNVYLEPRCVTFGAPLVGDSIFSHALGREKWSRFFVNFVSRFDIVPRIMLARKASVEETLPHVLAQLDPRKSSVQESEQRITEFYTRVMRDTSTVANQAVCELTGSAEAFLETLSSFLELSPYRPAGTFVFSTEKRLVAVNNSDAILQMLFYTSQASDEQEWSLIPFRSIRDHHSYEELVQSMGKKLFNHLDGENSIESTLNDLGVSTRGRQYVQAALEEEKKRVENQKKIIQVIEQERFLKKLAWIEDEYKPKCQAHKNGYYDSFKVSNEENDFKANVKRAELAGVFDEVLGLMKKCQLPDEFEGDIDWIKLATRYRRLVEPLDIANYHRHLKNEDTGPYMKRGRPTRYIYAQRGYEHYILKPNGMIAEDVFWNKVNGLNLGLQLEEIQETLKNSGSECGSCFWAEVEELKGKPYEEVEVRVKTLEGMLGEWITDGEVDDKEIFLEGSTFRKWWITLPKNHKSHSPLRDYMMDEITDT
In the case of B3, the binding [8] is reported as “binds”.

B4: VCS-mCherry (processing body scaffolding protein Varicose) (protein, UniProt Q9LTT8 1-1344)
chain: MASSPGNTNPHNTPPFDLGILFKPSSNPYPPPAASYPPPTGPFLHNQYDQQHYAPPGISAQPSPVTQQQQDVSSSSAATNLHPQRTLSYPTPPLNLQSPRSNHNPGTHILALLNNTNNGAPVANQEPSHQLPVVNHNEIARSFPGGSGPIRVPSCKLPKGRRLIGEHAVYDVDVRLQGEIQPQLEVTPITKYGSDPQLVVGRQIAVNKVYICYGLKGGNIRVLNINTALRSLFRGHSQRVTDMAFFAEDVDMLASVSLDGKVFVWKISEGSEGEDQPQITGKIVLALQILGEEDTKHPRVCWHCHKQEILVVSIGKHVLRIDTTKVGRGEVFSAEAPLQCPLDKLIDGVQIVGKHDGEVTDLSMCQWMTTRLVSSSVDGTIKIWQDRKAQPLVVLRPHDGHPVSSATFVTSPERPDHIILITGGPLNREMKIWVSAGEEGWLLPADAESWRCTQTLDLKSSTEPRAEEAFFNQVIALSEAGLLLLANAKRNALYAVHLDYGSSPVGTRMDYLSEFTVTMPILSFIGTNDPPEEPIVKVYCVQTLAIQQYTLDLCLCLPPPIENMGLEKSDSSVSREANLVEGMSEPSGLKPTDLPSVDSVPKPSIIVNRSESANKLSFPSAEATSQAIVPPNGEPKTSGLPSQTSGAGSAYATLPQLPLSPRLSSKLSGYHTPVEAIEPVIPHHELGGKTPSADYSVDRQMDAVGERNLDVSSVEEISRSKDSNVTPDDDVSGMRSPSAFFKHPTHLVTPSEILMGVSSAEASITTEDRRDRDANIQDVNNDPRDTEVEVKEISEARSTQNGEINDHDETENCTSENREKVFCSQVSNLSTEMARDCYPSTEGTFIPGESKAYGQPIKAGDESGVDSRGGPAKLLKGKKQKAKNSQGPGLSSTSSNVANLADSFNEQSQSLSHPMTDLLPQLLAMQETMNQVMASQKEMQRQLSNAATGPIGKESKRLEVALGRMIEKSSKSNADALWARIQEETVKNEKALRDHAQQIVNATTNFMSKELNAMFEKTIKKELAAIGPALARSVVPVIEKTVSSAITESFQRGIGDKAVNQLDKSVNIKLEATVARQIQAQFQTSGKQALQEGLRSSVESSVIPSFEKACKAMFDQIDSAFQKGIAEHTNAAQQRFDSGHSQLAHTLKESITSASSVAQALSRELAETQRNLLALAAAGANSGGSNSLVTQLSGGPLGALLEKVEAPMDPTTELSRLISERKYEESFTSALQRSDVSIVSWLCSQVDLRGLLAMNPLPLSQGVLLSLLQQLACDISKDTSRKLAWMTDVVAAINPSDQMIAVHARPIFEQVYQILHHHRNAPGSDVSAIRLIMHVINSMLMGCK
B4 was tested, and the binding [8] was “no binding”.

B5: A. thaliana PAD4, full length, in pDEST-GADT7 (AD) (protein, UniProt Q9S745 1-541)
chain: MDDCRFETSELQASVMISTPLFTDSWSSCNTANCNGSIKIHDIAGITYVAIPAVSMIQLGNLVGLPVTGDVLFPGLSSDEPLPMVDAAILKLFLQLKIKEGLELELLGKKLVVITGHSTGGALAAFTALWLLSQSSPPSFRVFCITFGSPLLGNQSLSTSISRSRLAHNFCHVVSIHDLVPRSSNEQFWPFGTYLFCSDKGGVCLDNAGSVRLMFNILNTTATQNTEEHQRYGHYVFTLSHMFLKSRSFLGGSIPDNSYQAGVALAVEALGFSNDDTSGVLVKECIETATRIVRAPILRSAELANELASVLPARLEIQWYKDRCDASEEQLGYYDFFKRYSLKRDFKVNMSRIRLAKFWDTVIKMVETNELPFDFHLGKKWIYASQFYQLLAEPLDIANFYKNRDIKTGGHYLEGNRPKRYEVIDKWQKGVKVPEECVRSRYASTTQDTCFWAKLEQAKEWLDEARKESSDPQRRSLLREKIVPFESYANTLVTKKEVSLDVKAKNSSYSVWEANLKEFKCKMGYENEIEMVVDESDAMET
B5 was tested, and the binding [2] was “no binding”, the binding [3] was “no binding” and the binding [4] was “no binding”. For the same binder, the binding [5] was “no binding”.

B6: A. thaliana SAG101, full length, in pDEST-GADT7 (AD) (protein, UniProt Q4F883 1-537)
chain: MESSSSLKGSALGKLVVTSGLLHSSWSKILEIHNPPYSNHDPGLQVSKKKKDSGLEFQIHREEKFTLVVFSAPPICRSSSSDSTLLHVKDKENPFPFLCSENNPSFSLHTPAFNLFTSASTSLTYLKSELLQTLKSEKPVIITGAALGGSVASLYTLWLLETIEPTLKRPLCITFGSPLIGDASLQQILENSVRNSCFLHVVSAQTRIKMDFFKPFGTFLICFDSGCVCIEDHVAVTELLNGVHDSGLVDYSQVLNRLDQSMLSLADSRLIPEDVIKGIEKRAEMKNLRFDMMFKKLNDMKISMAYIEWYKKKCKEVKIGYYDRFKTQLAFPSKEFDINIKNHHKSELNRFWKSVVEEVERRPQSDASILKRRFLFSGNNYRRMIEPLDIAEYYLEGRKEYRTTGRSHHYVMLEKWFGMESILIEKERCKKRDLSDLLTFDSCFWAEVEDSLIVINQLNTTVGMRDDVREVLTRKLVEFEGYVWEIITKREVSPEIFLEESSFMKWWKEYKKIKGFNSSYLTEFMNTRKYESYGKSQ
In the case of B6, the binding [2] is reported as “no binding”, the binding [3] is reported as “no binding” and the binding [4] is reported as “no binding”. The binding [5] was “no binding”.
